# Assay results as given in PubChem BioAssay AID504444 (National Center for Advancing Translational Sciences (NCATS), 2011).
# The campaign covered roughly 360,000 compounds. About 7,500 (2.1%) were called active. Inconclusive means that the source gave no clear call. Such entries were picked first, then a sample of the others. Calls follow the shape of the dose curve; as a rule, active = well fitted inhibition curve with a large enough effect; inconclusive = small, poorly fitted or top-dose-only effect, or effect the other way; inactive = flat fitted curve, though single readings scatter. A potency beside an inconclusive call is a rough fit, not a confirmed value.
# Experiment: Nrf2 qHTS screen for inhibitors; also: nearly all actives have a fitted effect of over 60% in size
# Conditions: A549 ARE-Fluc reporter, luciferase luminescence, 18-24 h; series mostly up to 46 µM
# In short: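 Quantitative HTS in A549 cells stably bearing an antioxidant response element-firefly luciferase construct. Inhibition of Nrf2-driven transcription was scored by luminescence after 18-24 h of compound exposure at 37 °C.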
# Potency is read from the fitted curve at half-maximal effect.
row,SMILES,Potency
1,CC(C)CC(=O)NC(=S)Nc1cccc(NC(=O)c2ccccc2)c1,active: 14.6 µM
2,Cc1ccc(C)c(CSc2cn(CCNC(=O)c3cccs3)c3ccccc23)c1,"inconclusive: 20.6 µM [falling, single point]"
3,COc1ccc(C(=O)OC(C)C(=O)NC(C)CCc2ccccc2)c(OC)c1 (stereo not drawn),inactive
4,CC(C)c1nc2oc3c(=O)[nH]cnc3c2c2c1CCC2,inactive
5,O=C(NCc1cccnc1)c1cc(-c2ccccc2)on1,"inconclusive: 23.1 µM [activator, single point]"
6,Cc1cc(C)cc(NC(=O)COC(=O)CN=C2NS(=O)(=O)c3ccccc32)c1,"inconclusive: 0.517 µM [falling, full curve, poor fit]"
7,COc1ccc(/C=C2/C(=O)N(c3ccccc3)N=C2C)cc1Br,"inconclusive: 5.17 µM [activator, single point]"
8,CC(C)C(=O)Nc1cccc(NC(=S)NC(=O)c2ccc(Cl)cc2)c1,"inconclusive: 29.1 µM [falling, single point]"
9,CC(CNC(=O)c1csc2c1CCCCC2)c1ccccc1 (stereo not drawn),"inconclusive: 5.8 µM [activator, partial curve]"
10,CCc1ccc(NC(=O)Cn2nnc(C(=O)Nc3ccc(F)cc3)c2N)cc1,"inconclusive: 13 µM [activator, partial curve, poor fit]"
11,COc1cc(OC)cc(-c2c(-c3cccs3)c3cc(-c4cnc(N)nc4)ccc3n2C)c1,active: 20.6 µM
12,O=[N+]([O-])c1ccccc1/C=N/N1CCN(Cc2ccccc2)CC1,"inconclusive: 16.4 µM [activator, single point]"
13,CCOC(=O)c1ccc(NC(=O)c2nc[nH]c2C(=O)N[C@H](C)c2ccccc2)cc1,active: 16.4 µM
14,O=C(NCCNc1nccc(C(F)(F)F)n1)c1cccc(C(F)(F)F)c1,"inconclusive: 29.1 µM [falling, single point]"
15,O=c1[nH]nnc2c1sc1nc(N3CCOCC3)c3c(c12)CCCC3,"inconclusive: 1.3 µM [falling, partial curve]"
16,CCOc1ccccc1NC(=O)NCc1noc2ccc(C)cc12,"inconclusive: 14.6 µM [falling, partial curve]"
17,CN1CCN(C(=O)CSc2ccc(C(F)(F)F)cc2[N+](=O)[O-])CC1,inactive
18,Nc1c(C(=O)CSc2nc3ccccc3o2)c(=O)[nH]c(=O)n1C1CC1,"inconclusive: 0.92 µM [activator, full curve, poor fit]"
19,CC(C)NC(=O)c1onc(CSc2ccc(C(C)C)cc2)c1C(=O)O,"inconclusive: 18.4 µM [activator, single point]"
20,O=c1n(Cc2ccc(Cl)cc2)nc2n1-c1ccccc1OC2,inactive
21,CC(C)C[C@H](NC(=O)c1[nH]cnc1C(=O)N[C@@H](C)C(=O)OC(C)(C)C)C(=O)OC(C)(C)C,"inconclusive: 32.6 µM [falling, single point]"
22,Cc1ccc(O)c(Nc2c3ccccc3nc3ccccc23)c1,"inconclusive: 23.1 µM [falling, partial curve]"
23,Cc1nn(C(C)C)c(C)c1CN1CCCC(C(=O)c2cccc(OC(C)C)c2)C1 (stereo not drawn),"inconclusive: 29.1 µM [activator, single point]"

row,SMILES,Potency
1,O=C(c1ccccc1)N1CCN(C(=O)c2nn3c(C(F)(F)F)cc(-c4ccco4)nc3c2Cl)CC1,"inconclusive: 0.461 µM [falling, full curve]"
2,CCOC(=O)c1ccc(NC(=O)CCNC(=O)c2ccc([N+](=O)[O-])cc2)cc1,"inconclusive: 5.17 µM [falling, full curve]"
3,O=C(/C=C/c1ccc(Cl)cc1Cl)N(Cc1ccc(Cl)cc1)C1CCS(=O)(=O)C1 (stereo not drawn),"inconclusive: 23.1 µM [falling, single point]"
4,O=C(Cn1cnc2c(nnn2Cc2ccccc2)c1=O)c1ccc(Cl)cc1,"inconclusive: 29.1 µM [falling, single point]"
5,O=C(Nc1cccc(F)c1)C1CCN(S(=O)(=O)c2ccc3[nH]c4c(c3c2)CCCCC4)CC1,active: 18.4 µM
6,O=C(OCC(=O)c1c[nH]c2ccccc12)c1cccc([N+](=O)[O-])c1,"inconclusive: 20.6 µM [activator, partial curve, poor fit]"
7,CCCC(=O)N(CCN1CCOCC1)c1nc2cc(C)c(C)cc2s1,"inconclusive: 18.4 µM [activator, partial curve]"
8,COc1ccc(-c2noc3c2-c2nc(-c4ccc(C)cc4)sc2CC3)cc1,"inconclusive: 20.6 µM [activator, single point]"
9,CN(C(=O)c1cccc(NC(=O)Cc2ccc(NC(=O)C3CCN(C(=O)CCc4ccccc4)CC3)cc2)c1)C1CC1,inactive
10,CCCc1cc(C(=O)Nc2sc(C)c(CC)c2C#N)no1,"inconclusive: 25.9 µM [falling, single point]"
11,Cc1ccc(/C=N/Nc2nncc(-c3ccccc3)n2)o1,inactive
12,CN(CC(=O)Nc1cccnc1)S(=O)(=O)c1cc(Cl)ccc1Cl,"inconclusive: 23.1 µM [falling, partial curve, poor fit]"
13,Cc1cc(NC(=O)c2ccccc2)ncc1NC(=O)c1cccs1,"inconclusive: 4.11 µM [activator, full curve]"
14,COc1ccccc1NC(=O)CN(Cc1ccco1)C(=O)c1ccc(-n2nc(C)cc2C)cc1,inactive
15,Cc1c2c(nc3ccccc13)OCC2,"inconclusive: 25.9 µM [falling, single point]"
16,Nc1cc[n+](CC(=O)c2ccccc2)cc1,active: 8.2 µM
17,CCCC(=O)Nc1cc(-c2nc3cccnc3s2)ccc1C,inactive
18,CC1CC(C)CN(C(=O)CSc2nc(Cc3cccs3)nc3ccccc23)C1 (stereo not drawn),"inconclusive: 32.6 µM [falling, single point]"
19,Cc1ccc(S(=O)(=O)NCCCOC(=O)Nc2ccncc2)cc1,inactive
20,O=C(c1ccc(F)cc1)N1CCOCC1,inactive
21,CC(C)CCN(C(=S)Nc1cccc(C(F)(F)F)c1)C(C)c1ccccn1 (stereo not drawn),"inconclusive: 18.4 µM [falling, single point]"
22,COC(=O)[C@@]1(C)[C@H]2C(=O)N(Cc3ccccc3)C(=O)[C@H]2[C@H]2CN=C(SCc3ccc(C)cc3)N21,inactive
23,O=C(Nc1ncc([N+](=O)[O-])s1)c1cccc([N+](=O)[O-])c1,"inconclusive: 1.84 µM [activator, partial curve]"

row,SMILES,Potency
1,CC(C)(C)c1ccc(C(=O)N2CCC(C(=O)NCCC3=CCCCC3)CC2)cc1,"inconclusive: 29.1 µM [falling, single point]"
2,O=C(c1ccc(Br)o1)N1CCN(c2ccccc2F)CC1,"inconclusive: 9.2 µM [falling, partial curve, poor fit]"
3,Cc1ccc(-c2cc(C(=O)Nc3c(C#N)cnn3C)no2)cc1,"inconclusive: 3.66 µM [activator, full curve, poor fit]"
4,COc1ccc(C(=O)NCCc2nnc(SCC(=O)Nc3ccc(Br)cc3)n2C)cc1,"inconclusive: 23.1 µM [activator, single point]"
5,N#CC(C#N)=C1C=CC=CN1/C(=C\c1ccco1)C(=O)c1ccc(Br)cc1,"inconclusive: 29.1 µM [falling, single point]"
6,COC(=O)C1=C(C)N(Cc2ccccc2)C(=NCCc2c[nH]c3ccccc23)N[C@H]1c1ccccc1,inactive
7,CCn1c(SC(C)C(=O)Nc2ccc(N3CCOCC3)cc2)nnc1-c1ccco1 (stereo not drawn),"inconclusive: 1.84 µM [falling, partial curve, poor fit]"
8,COc1ccccc1Nc1ccc([N+](=O)[O-])cn1,"inconclusive: 9.2 µM [activator, partial curve]"
9,O=[N+]([O-])c1ccccc1/C=C/CN1CCCC(CO)C1 (stereo not drawn),inactive
10,N#C/C(=C\c1cccc(Cl)c1)C(=O)c1ccccc1,"inconclusive: 0.651 µM [falling, full curve, poor fit]"
11,Cn1nccc1C(=O)NC(=S)Nc1sc2c(c1C#N)CCCCC2,"inconclusive: 25.9 µM [activator, single point]"
12,Cc1ccc(S(=O)(=O)N2CCCN(S(=O)(=O)c3ccc(C)c(C)c3)CC2)cc1C,"inconclusive: 23.1 µM [falling, single point]"
13,CCN1CCCC(Sc2nc3c([nH]2)c(=S)n(C)c(=O)n3C)C1 (stereo not drawn),"inconclusive: 0.231 µM [falling, full curve, poor fit]"
14,CN(C(=O)CSc1nc2ccc(NC(=O)CCc3ccccc3)cc2s1)c1ccccc1,"inconclusive: 29.1 µM [falling, single point]"
15,N#Cc1ccc(C(=O)OCC(=O)Nc2cccnc2Cl)cc1,inactive
16,CCc1ccccc1NC(=O)C(=O)NCC(c1cccnc1)N1CCc2ccccc21 (stereo not drawn),inactive
17,O=C(NN=C1c2ccccc2-c2ccccc21)c1cccc(Br)c1,"inconclusive: 16.4 µM [falling, single point]"
18,O=C1C=CC(=O)N1c1ccc(OC(F)F)cc1,"inconclusive: 23.1 µM [falling, single point]"
19,O=C(NCc1ccncc1)c1cccc(S(=O)(=O)Nc2ccc(SC(F)F)cc2)c1,active: 14.6 µM
20,CC(=O)Nc1cccc(NC(=O)Nc2ccc(C)c(Cl)c2)c1,inactive
21,Cc1nn(C2CCS(=O)(=O)C2)c(Cl)c1/C=C/C(=O)OCC(=O)c1c[nH]c2ccccc12 (stereo not drawn),"inconclusive: 14.6 µM [activator, partial curve, poor fit]"
22,COc1cc(CN2CCC(n3nccc3NC(=O)CCCc3ccccc3)CC2)ccc1F,"inconclusive: 4.11 µM [falling, single point]"

# Some of the entries above, reformatted.
row	SMILES	Potency
14	COc1ccccc1NC(=O)CN(Cc1ccco1)C(=O)c1ccc(-n2nc(C)cc2C)cc1	inactive
15	Cc1c2c(nc3ccccc13)OCC2	inconclusive: 25.9 µM [falling, single point]
16	Nc1cc[n+](CC(=O)c2ccccc2)cc1	active: 8.2 µM
17	CCCC(=O)Nc1cc(-c2nc3cccnc3s2)ccc1C	inactive
18	CC1CC(C)CN(C(=O)CSc2nc(Cc3cccs3)nc3ccccc23)C1 (stereo not drawn)	inconclusive: 32.6 µM [falling, single point]
19	Cc1ccc(S(=O)(=O)NCCCOC(=O)Nc2ccncc2)cc1	inactive
20	O=C(c1ccc(F)cc1)N1CCOCC1	inactive
21	CC(C)CCN(C(=S)Nc1cccc(C(F)(F)F)c1)C(C)c1ccccn1 (stereo not drawn)	inconclusive: 18.4 µM [falling, single point]
22	COC(=O)[C@@]1(C)[C@H]2C(=O)N(Cc3ccccc3)C(=O)[C@H]2[C@H]2CN=C(SCc3ccc(C)cc3)N21	inactive
23	O=C(Nc1ncc([N+](=O)[O-])s1)c1cccc([N+](=O)[O-])c1	inconclusive: 1.84 µM [activator, partial curve]
1	CC(C)(C)c1ccc(C(=O)N2CCC(C(=O)NCCC3=CCCCC3)CC2)cc1	inconclusive: 29.1 µM [falling, single point]
2	O=C(c1ccc(Br)o1)N1CCN(c2ccccc2F)CC1	inconclusive: 9.2 µM [falling, partial curve, poor fit]
3	Cc1ccc(-c2cc(C(=O)Nc3c(C#N)cnn3C)no2)cc1	inconclusive: 3.66 µM [activator, full curve, poor fit]
4	COc1ccc(C(=O)NCCc2nnc(SCC(=O)Nc3ccc(Br)cc3)n2C)cc1	inconclusive: 23.1 µM [activator, single point]

# A section of the results above, as a working copy:
row,SMILES,Potency
17,CN1CCN(C(=O)CSc2ccc(C(F)(F)F)cc2[N+](=O)[O-])CC1,inactive
18,Nc1c(C(=O)CSc2nc3ccccc3o2)c(=O)[nH]c(=O)n1C1CC1,"inconclusive: 0.92 µM [activator, full curve, poor fit]"
